Measured values: patent publication US20130004490A1 (UNITED STATES OF AMERICA AS REPRESENTED BY THE SECRETARY …, published 2013)
No constants are given. Whether binding was seen depends on the method and setting. Some results given as binding are weak or reduced against the parent protein; the word gives no strength.

The chains behind the UniProt entries cited, without tags or fusion partners. Residues count along the entry.
UniProt P05362, residues 28-480: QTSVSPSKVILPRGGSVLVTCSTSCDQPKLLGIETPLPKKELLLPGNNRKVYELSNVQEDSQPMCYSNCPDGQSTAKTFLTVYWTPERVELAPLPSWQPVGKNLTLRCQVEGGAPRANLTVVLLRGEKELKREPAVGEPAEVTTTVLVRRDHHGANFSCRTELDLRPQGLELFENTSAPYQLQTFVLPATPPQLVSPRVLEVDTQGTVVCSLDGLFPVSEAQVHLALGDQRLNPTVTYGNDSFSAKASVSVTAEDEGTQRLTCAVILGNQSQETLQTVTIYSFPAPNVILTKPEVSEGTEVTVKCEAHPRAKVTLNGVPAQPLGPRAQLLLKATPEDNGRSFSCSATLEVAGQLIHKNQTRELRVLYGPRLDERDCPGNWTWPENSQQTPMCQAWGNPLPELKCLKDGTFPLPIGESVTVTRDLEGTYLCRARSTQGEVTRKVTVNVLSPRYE
UniProt P13597, residues 28-485: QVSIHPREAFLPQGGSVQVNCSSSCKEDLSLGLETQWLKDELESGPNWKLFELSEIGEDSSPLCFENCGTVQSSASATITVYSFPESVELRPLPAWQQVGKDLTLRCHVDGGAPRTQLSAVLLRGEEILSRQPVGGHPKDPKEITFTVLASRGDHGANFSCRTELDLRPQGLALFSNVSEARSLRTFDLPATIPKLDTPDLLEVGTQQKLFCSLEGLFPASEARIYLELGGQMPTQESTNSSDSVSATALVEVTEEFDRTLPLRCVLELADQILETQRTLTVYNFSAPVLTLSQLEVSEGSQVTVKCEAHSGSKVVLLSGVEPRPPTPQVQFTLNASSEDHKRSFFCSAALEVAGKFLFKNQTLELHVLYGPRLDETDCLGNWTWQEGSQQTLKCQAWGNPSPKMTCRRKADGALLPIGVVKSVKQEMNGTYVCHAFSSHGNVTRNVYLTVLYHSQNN

Columns and labels:
[1] = molecular target: human ICAM-1 (immobilized, ELISA format) (human) (UniProt P05362); assay: FITC-labeled γ3 polystyrene carriers on immobilized ICAM-1 (ELISA format), beads bound per area by fluorescence microscopy
[2] = molecular target: mouse ICAM-1 (immobilized, ELISA format) (mouse) (UniProt P13597); assay: as above

binding [1]: binds
binding [2]: binds
Binder: NNQKIVNLKEKVAQLEA (also called γ3 peptide; γ3 carriers) [ICAM-1 affinity peptide γ3, a 17-mer polypeptide derived from fibrinogen]
